Laboratory results: publication PMC4744182
No constants are given. Whether binding was seen depends on the method and setting. Binding seen in cells or lysates may run through a third protein. Some binding calls cover weakened binding; strength is not graded here.

Sequences of proteins named here, by UniProt entry; tags and fusion partners are left off.
UniProt O09106: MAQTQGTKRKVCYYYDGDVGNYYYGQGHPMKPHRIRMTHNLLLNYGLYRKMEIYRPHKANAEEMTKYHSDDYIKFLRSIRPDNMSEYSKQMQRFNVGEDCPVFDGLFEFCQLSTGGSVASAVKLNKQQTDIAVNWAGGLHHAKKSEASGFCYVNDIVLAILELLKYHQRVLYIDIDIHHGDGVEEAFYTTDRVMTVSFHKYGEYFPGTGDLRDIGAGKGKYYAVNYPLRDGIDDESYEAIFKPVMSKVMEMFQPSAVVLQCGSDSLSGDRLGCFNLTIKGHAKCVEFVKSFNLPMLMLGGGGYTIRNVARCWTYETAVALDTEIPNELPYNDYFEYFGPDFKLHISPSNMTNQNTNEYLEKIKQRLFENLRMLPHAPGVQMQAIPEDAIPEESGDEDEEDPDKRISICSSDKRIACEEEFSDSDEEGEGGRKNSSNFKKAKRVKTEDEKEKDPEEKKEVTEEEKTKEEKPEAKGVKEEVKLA

Key:
[1] = biological target: T1, Satb2 (mouse (endogenous in P1 cortex)) (UniProt Q8VI24); experiment: co-IP; nuclear extracts (NE-PER kit) of P1 control and Nr2f1 CKO mouse cortices, dialysed against buffer D (20% glycerol, 20 mM HEPES pH 7.9, 100 mM KCl, 0.2 mM EDTA, 0.5 mM DTT); precipitated with anti-Lmo4 or anti-Satb2 (anti-BrdU as control) on Protein A Sepharose; Western blot for Hdac1, Ski or Satb2
T1 sequence: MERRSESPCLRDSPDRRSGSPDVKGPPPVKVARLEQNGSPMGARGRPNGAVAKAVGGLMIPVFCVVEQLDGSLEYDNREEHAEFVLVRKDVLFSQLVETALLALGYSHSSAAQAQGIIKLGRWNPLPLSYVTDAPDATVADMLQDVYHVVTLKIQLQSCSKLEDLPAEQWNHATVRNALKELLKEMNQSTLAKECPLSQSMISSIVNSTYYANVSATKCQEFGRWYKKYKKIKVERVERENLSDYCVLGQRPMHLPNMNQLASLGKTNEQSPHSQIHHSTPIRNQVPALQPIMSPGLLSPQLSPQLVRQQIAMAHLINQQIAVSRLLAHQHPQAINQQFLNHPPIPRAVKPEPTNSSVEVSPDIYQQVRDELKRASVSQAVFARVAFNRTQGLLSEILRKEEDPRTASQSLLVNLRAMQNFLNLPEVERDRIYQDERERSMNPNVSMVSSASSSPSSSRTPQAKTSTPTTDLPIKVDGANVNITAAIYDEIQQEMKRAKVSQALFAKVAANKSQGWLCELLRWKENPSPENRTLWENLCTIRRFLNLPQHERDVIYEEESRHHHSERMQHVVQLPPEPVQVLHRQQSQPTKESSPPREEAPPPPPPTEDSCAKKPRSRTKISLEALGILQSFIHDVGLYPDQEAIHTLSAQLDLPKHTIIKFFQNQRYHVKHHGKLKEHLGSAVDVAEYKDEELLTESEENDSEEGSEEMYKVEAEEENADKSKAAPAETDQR

[2] = biological target: T2, Lmo4 (mouse (endogenous in P1 cortex)) (UniProt P61969); experiment: as above
T2 sequence: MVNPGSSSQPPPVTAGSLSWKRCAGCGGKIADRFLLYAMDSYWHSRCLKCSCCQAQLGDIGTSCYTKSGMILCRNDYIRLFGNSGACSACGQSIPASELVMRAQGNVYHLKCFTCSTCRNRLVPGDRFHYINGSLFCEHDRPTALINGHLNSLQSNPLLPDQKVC

histone deacetylase 1 (Hdac1) (from UniProt O09106 1-482) (enzyme)
binding [1]: binds
binding [2]: binds
